# Source: patent US9962341B2, “Active pharmaceutical ingredient (API) comprising cannabinoids for use in the treatment of cancer” (GW Pharma Limited, priority 2014, dated 2018)
# How the values were obtained:
# Format in all cases: cell-based
# ACHN = assay: Cell viability (CellTiter-Blue, 72 h), ACHN renal cancer cells; details: 1% FBS
# Description: (§1) The following cell lines were tested in this example: Lung Cancer (A549, NCI-H460); Pancreatic cancer (PANC1, Mia-Pa-Ca-2); Melanoma (WM115, A375); Ovarian cancer (OVCAR3, SKOV3); Gastric cancer (MKN45, HGC-27); Renal cancer (ACHN) and Bladder Cancer (RT112).
# (§2) Each tumour cell line was maintained in vitro in RPMI 1640+10% heat inactivated FBS and 2 mM L-glutamine (growth media) at 37° C. in 5% CO2 and humidified conditions. The cells were harvested, washed, re-suspended into growth medium and counted. The cells were re-suspended into assay media (RPMI 1640+5% heat inactivated FBS+ and 2 mM L-glutamine) at 4×10^4 cells/ml (dependent upon cell type) and plated into the middle 240 wells of 384 well tissue culture plates (Corning CellBind, black-wall plates) 25 μl/well aliquots; 50 μl of growth media was aliquoted into the outer wells. There were 3 plates for each cell line.
# (§3) The plates were incubated overnight at 37° C., in 5% humidified CO2.
# (§4) The phytocannabinoid test compounds were prepared in 100% DMSO vehicle at a stock concentration of 20 and 40 mM.
# (§5) Starting with the 20 mM stock in DMSO, this was serially diluted (2 fold) in DMSO in a 96-well plate, to 20 (no dilution), 10, 5, 2.5, 1.25, 0.625, 0.315, 0.157 and […]. Following this, 10 ul of each compound dilution was diluted into 990 ul of 1% (v/v) FBS media in a deep well block making the final concentrations of 200, 100, 50, 25, 12.5, 6.25, 3.125, 1.56 and 0.79 μM (2× final assay concentrations and 1% DMSO).
# (§6) An equal volume of each cannabinoid in the combination (stock concentration 40 mM) was mixed together to make a stock of 20 mM of each cannabinoid in DMSO. This was serially diluted (2 fold) in DMSO in a 96-well plate, to 20 (no dilution), 10, 5, 2.5, 1.25, 0.625, 0.315, 0.157 and […]. Following this, 10 ul of each combination dilution was diluted into 990 ul of 1% (v/v) FBS media in a deep well block making the final concentrations of 200, 100, 50, 25, 12.5, 6.25, 3.125, 1.56 and 0.79 μM (2× final assay concentrations and 1% DMSO).
# Taxotere SOC was prepared in 100% DMSO to give a stock concentration of 10 mM. This was diluted in DMSO from the stock solution to 200 μM, then serially diluted (3-fold) in DMSO to 200 (no dilution), 66.66, 22.22, 7.41, 2.47, 0.82, 0.27, 0.09, 0.03 μM. 10 ul of each of the taxotere dilutions was diluted in 990 ul of 1% (v/v) FBS media making the final concentrations of 2, 0.67, 0.22, 0.074, 0.0247, 0.0082, 0.0027 0.0009, 0.0003 μM (2× final assay concentrations and 1% DMSO).
# (§7) The plates were incubated for 72 h at 37° C. in 5% humidified CO2. To develop the plates, at 72 h, 10 μl of CellTiter-Blue™ reagent was added to each test/blank well.
# (§8) The plates were incubated at 37° C., 5% humidified CO2. Fluorescence was measured using a Flex II Station plate reader (570 nm excitation wavelength, 600 nm emission wavelength, 590 nm cut-off) after 3 h.
# (§9) The phytocannabinoid compounds CBD, CBGA, CBG, CBDA, THCV and THC were tested on a panel of lung (A549, NCI-H460), pancreatic (PANC1, Mia-Pa-Ca-2), melanoma (WM115, A375), ovarian (OVCAR3, SKOV3), gastric (MKN45, HGC-27), renal (ACHN) and bladder (RT112) cancer cell lines according to the protocol for 72 h in media containing 1% FBS.
# (§10) The IC50 values for each phytocannabinoid and combination of CBD with the other phytocannabinoids was calculated for each cell line. The raw data values expressed in relative fluorescent units were normalised to the vehicle for each individual plate and any reduction in fluorescence indicated a decrease in viability.
# (§11) This calculation was as described in Example 1 above.
# Mia-Pa-Ca-2 = assay: Cell viability (CellTiter-Blue, 72 h), Mia-Pa-Ca-2 pancreatic cancer cells; details: MIA-PA-CA2, 1% FBS
# Description: as §1, §2, §3, §4, §5, §6
# (§12) Gemcitabine SOC was prepared in 100% DMSO to give a stock concentration of 20 mM. This was then serially diluted (3 fold) in DMSO in a 96-well plate, to 20 (no dilution), 6.6, 2.2, 0.741, 0.247, 0.082, 0.027, 0.009 and 0.003 mM. Following this, 10 ul of each dilution was further diluted into 990 ul of 1% (v/v) FBS media making the final concentrations of 200 (no dilution), 66.66, 22.22, 7.41, 2.47, 0.82, 0.27, 0.09, 0.03 μM (2× final assay concentrations and 1% DMSO).
# as §7, §8, §9, §10, §11
# A375 = assay: Cell viability (CellTiter-Blue, 72 h), A375 melanoma cells; details: A375, 1% FBS
# Description: as §1, §2, §3, §4, §5, §6
# (§13) Cisplatin (stock of 1 mg/ml=3.33 mM in water) was diluted in 1% FBS media to give a stock concentration of 1 mM. This was then diluted in 1% FBS media from the stock solution to 200 μM, then serially diluted (3-fold) in 1% FBS media to 200 (no dilution), 66.66, 22.22, 7.41, 2.47, 0.82, 0.27, 0.09, 0.03 μM (2× final assay concentrations; no DMSO).
# as §7, §8, §9, §10, §11
# HGC-27 = assay: Cell viability (CellTiter-Blue, 72 h), HGC-27 gastric cancer cells; details: HGC27 cells, 1% FBS
# Description: as §1, §2, §3, §4, §5, §6, §13, §7, §8, §9, §10, §11
# PANC-1 = assay: Cell viability (CellTiter-Blue, 72 h), PANC-1 pancreatic cancer cells; details: PANC-1, 1% FBS
# Description: as §1, §2, §3, §4, §5, §6, §12, §7, §8, §9, §10, §11
# WM115 = assay: Cell viability (CellTiter-Blue, 72 h), WM115 melanoma cells; details: WM115, 1% FBS
# Description: as §1, §2, §3, §4, §5, §6, §13, §7, §8, §9, §10, §11
Structure (SMILES),m (shape parameter of the curve) (ACHN),m (shape parameter of dose effect curve) (Mia-Pa-Ca-2),m (shape parameter of dose effect curve) (A375),m (shape parameter of the curve) (HGC-27),m (shape parameter of dose effect curve) (PANC-1),m (shape parameter of dose effect curve) (WM115)
"C=C(C)[C@@H]1CCC(C)=C[C@H]1c1c(O)cc(CCCCC)cc1O [CBD, Cannabidiol]",9.47,3.26,8.30,4.61,7.80,2.11
"C=C(C)[C@@H]1CCC(C)=C[C@H]1c1c(O)cc(CCCCC)c(C(=O)O)c1O [CBDA, Cannabidiolic acid]",3.57,2.03,3.85,3.86,3.11,3.16
"CCCCCc1cc(O)c(C/C=C(\C)CCC=C(C)C)c(O)c1 [CBG, Cannabigerol]",7.00,2.87,3.24,4.77,5.52,3.25
"CCCCCc1cc(O)c(C/C=C(\C)CCC=C(C)C)c(O)c1C(=O)O [CBGA, Cannabigerolic acid]",6.02,4.65,3.46,2.41,4.12,3.78
"CCCc1cc(O)c2c(c1)OC(C)(C)[C@@H]1CCC(C)=C[C@@H]21 [THCV, Tetrahydrocannabivarin]",6.63,4.45,5.87,1.60,6.63,6.56
